Results as given in PMC7493948.
Results are given in words; binding and its absence hold for the method and conditions named. Binding seen in cells or lysates may run through a third protein. Some results given as binding are weak or reduced against the parent protein; the word gives no strength. Sequences can lack the tags named with a protein.

Target: Flag-EGFR (epidermal growth factor receptor, Flag-tagged) (UniProt P00533)
Experiment: co-IP; HEK293 cells transiently transfected (48 h) with Flag alone, Flag-EGFR or Flag-BMP2; incubated with Fc-IgG1 or Fc-GREM1 (100 ng/ml each) for 1 h at 37 °C; lysates (IP Lysis Buffer) immunoprecipitated with anti-Flag antibody and protein A/G PLUS-agarose; blotted with anti-Fc antibody; only the binder purified

B1: Fc-GREM1 (Gremlin-1 fused to Fc) (Fc fusion, UniProt O60565 25-184)
chain: KKKGSQGAIPPPDKAQHNDSEQTQSPQQPGSRNRGRGQGRGTAMPGEEVLESSQEALHVTERKYLKRDWCKTQPLKQTIHEEGCNSRTIINRFCYGQCNSFYIPRHIRKEEGSFQSCSFCKPKKFTTMMVTLNCPELQPPTKKKRVTRVKQCRCISIDLD
binding: binds
